Entries after “also recorded” stand apart in the source; their conditions may differ. At least one structure is not confirmed: it was looked up by name or label, or the drawing left a doubt.
Tested on: Nitrosomonas eutropha D23
Assay: Antibiotic susceptibility (MIC) of N. eutropha D23 cultures in vitro
Format: cell-based
Settings: CLSI criteria, MIC levels of the outcome stand in parentheses in the cell
Protocol: The activities of five antibiotics, each representing a different antibiotic class, were tested against Nitrosomonas eutropha D23. The antibiotics tested included clindamycin, erythromycin, gentamicin, piperacillin with or without the β-lactamase inhibitor Tazobactam, and tetracycline. These were chosen based on the Clinical and Laboratory Standards Institute (CLSI) recommendations for routine testing and reporting of phylogenetically-related proteobacteria (Pseudomonas aeruginosa) listed under Non-fastidious organisms and Non-Enterobacteriaceae in the CLSI 24th Informational Supplement (M100-S24), and also included topical or systemic antimicrobial agents commonly used against acne, such as clindamycin or tetracycline. Studies with clindamycin were included even though this antibiotic was not expected to be very effective at inhibiting Nitrosomonas, as is the case for other aerobic Gram-negative bacteria.
Minimal Inhibitory Concentrations (MICs) were determined by culturing N. eutropha D23 in decreasing concentrations of each of the five antibiotics. Bacterial growth at 30° C. was monitored for 48-72 hr by determining optical density (OD600) values in samples collected at 24 hr intervals. MIC values were identified as the lowest antibiotic concentration from a two-fold dilution series leading to no increase in OD600 measurements for the 2 or 3-day incubation period. The N. eutropha D23 phenotype in each antibiotic test was determined as Susceptible, Intermediate, or Resistant according to the MIC Interpretive Criteria provided by the CLSI. […] Clindamycin resistance observed for N. eutropha D23 is in agreement with previous reports for natural resistance of aerobic Gram-negative bacteria to this antibiotic. In addition to testing the β-lactam antibiotic piperacillin alone, the broad range β-lactamase inhibitor Tazobactam was also tested in combination with piperacillin to assess the possible expression of β-lactamase(s) by N. eutropha D23.

Compound | MIC Interpretive Criteria (phenotype of N. eutropha D23) | MIC Interpretive Criteria (phenotype of N. eutropha D23) (listed as tetracycline)
CN(C)[C@@H]1C(O)=C(C(N)=O)C(=O)[C@@]2(O)C(O)=C3C(=O)c4c(O)cccc4[C@@](C)(O)[C@H]3C[C@@H]12 [Tetracycline] | Intermediate (8 μg/ml) | intermediate resistance
CCC[C@@H]1C[C@@H](C(=O)N[C@@H]([C@H]2O[C@H](SC)[C@H](O)[C@@H](O)[C@H]2O)[C@H](C)Cl)N(C)C1 [Clindamycin] | resistance; also recorded: Resistant (≥4 μg/ml) | –

— US12091652B2, “Ammonia-oxidizing Nitrosomonas eutropha strain D23” (priority 2014, dated 2024)
